Measurements reported in PubChem BioAssay AID1259254 (NCATS, 2017).

- Aim: 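Genome-wide screen for genes that prevent DNA re-replication in cancer cells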 (primary screen)
- Cells: human HCT116 colorectal cancer cells
- Knock-down reagent: single siRNA against human genes
- Duration: 3 days
- Read-out: 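Nuclei stained with Hoechst and imaged; cell-cycle phase assigned by DNA content; G2 share scaled per plate, non-targeting siRNA 0%, GMNN siRNA 100%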
- Reading the numbers: G2 robust z-score: higher = more G2 cells, more excess DNA replication
- Hit rule: 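Active siRNAs have a G2 robust z of 5 or more median absolute deviations over the median, which in these data means about 38% or higher of GMNN control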
Here is an unselected part of about 59,000 reagents tested. About 1,550 of all reagents (2.6%) count as active. 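G2 share is only a proxy for re-replication; each gene was hit by three separate siRNAs, and active genes were retested.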 Reagents against one gene are numbered here. Further read-outs or replicates are left out here. Not stated in the record: the amount of reagent.

G2 robust z-score, by target and reagent
DAB2IP (DAB2 interacting protein): #1 0.542 inactive; #2 1.81 inactive; #3 -0.0166 inactive
AIRIM (AFG2 interacting ribosome maturation factor): #1 -1 inactive; #2 4.84 inactive; #3 0.677 inactive
ALG1L2: #1 -0.345 inactive; #2 0.0876 inactive; #3 -0.114 inactive
BCAM (basal cell adhesion molecule (Lutheran blood group)): #1 -1.14 inactive; #2 1.43 inactive; #3 -0.148 inactive
ARHGAP32 (Rho GTPase activating protein 32): #1 0.0908 inactive; #2 0.0724 inactive; #3 -0.693 inactive
LIME1 (Lck interacting transmembrane adaptor 1): #1 1.39 inactive; #2 0.221 inactive; #3 -0.169 inactive

Looked up above.
Under “Call”, BCAM (basal cell adhesion molecule (Lutheran blood group)) #2 shows inactive
For “G2 robust z-score”, AIRIM (AFG2 interacting ribosome maturation factor) #1 has -1
Under “G2 robust z-score”, ARHGAP32 (Rho GTPase activating protein 32) #3 is entered as -0.693
ALG1L2 #1, G2 robust z-score → -0.345
Entry for AIRIM (AFG2 interacting ribosome maturation factor) #2 under “Call”: inactive

Continued:
G2 robust z-score, by target and reagent
CCDC102A (coiled-coil domain containing 102A): #1 -1.23 inactive; #2 1.98 inactive; #3 0.142 inactive
CFH (complement factor H): #1 -0.43 inactive; #2 -0.0275 inactive; #3 0.301 inactive
ACCS: #1 1.18 inactive; #2 -0.0838 inactive; #3 3.65 inactive
SRPRB (SRP receptor subunit beta): #1 0.813 inactive; #2 -1.49 inactive; #3 2.76 inactive
ULBP1 (UL16 binding protein 1): #1 -0.104 inactive; #2 -0.693 inactive; #3 0.622 inactive
MDM2 (MDM2 proto-oncogene): #1 5.09 active; #2 1.83 inactive; #3 0.961 inactive
OR5M3 (olfactory receptor family 5 subfamily M member 3): #1 0.241 inactive; #2 0.875 inactive; #3 -0.24 inactive
PKD1L1-AS1 (PKD1L1 antisense RNA 1): #1 0.131 inactive; #2 -0.847 inactive; #3 0.719 inactive
SPATA21 (spermatogenesis associated 21): #1 -0.889 inactive; #2 -0.447 inactive; #3 -1.33 inactive
SMIM43 (small integral membrane protein 43): #1 -0.799 inactive; #2 2.09 inactive; #3 -0.856 inactive
